# Laboratory results as given in US4087418A, “Hexapeptides and methods for their production” (Parke, Davis & Company, priority 1976, dated 1978).
# Structures can show the parent of a compound that is named as a salt. Not every detail of the peptide structures is certain; ends, links or a residue may be inferred. Where a SMILES comes first, the peptide text is derived from it. [ ]: non-standard residue; d: D form. The star is where a group is joined. Boc = CC(C)(C)OC(=O)*; Bn = c1ccc(C*)cc1
# Tested on: LRF (luteinizing hormone release factor) induced luteinizing hormone (LH) release
# Assay: In vitro LRF antagonist test in rat anterior pituitary cell cultures
# Type: cell-based
# Details: test compound Molar Conc. 1×10^-6, inhibition of LRF induced LH release
# Description: Hexapeptides of this invention were screened for LRF antagonist activity in vitro using rat anterior pituitary cell cultures as described by Vale et. al. [Endocrinology, 91, 562 (1972)]. The inhibition of LRF (luteinizing hormone release factor) induced luteinizing hormone (LH) release into the culture medium is the endpoint in this in vitro bioassay.
compound,measurement,value
"CCNC(=O)[C@@H]1CCCN1C(=O)[C@H](CCCNC(=N)N)NC(=O)[C@H](CC(C)C)NC(=O)[C@@H](C)NC(=O)[C@H](Cc1ccc(OCc2ccccc2)cc1)NC(=O)[C@H](COCc1ccccc1)NC(=O)OC(C)(C)C [N^α -t-Butoxycarbonyl-O-benzyl-L-seryl-O-benzyl-L-tyrosyl-D-alanyl-L-leucyl-L- arginyl-L-proline N-ethylamide, hydrochloride] (Boc-S(Bn)Y(Bn)[dA]LRP-NHEt)",% LH Release Inhibition,81%
